Results taken from patent US6255089A (priority 1998, dated 2001).

Tested on: 5-HT2A cys→lys mutant receptor
Settings: COS-7, 5-HT2A cys→lys receptor; inverse agonism

O=C(CCCN1CCC2(CC1)C(=O)NCN2c1ccccc1)c1ccc(F)cc1 [spiperone]
decrease of the constitutive IP stimulation: 58%
